Assay results from publication PMC4854385, “The Caenorhabditis elegans Protein FIC-1 Is an AMPylase That Covalently Modifies Heat-Shock 70 Family Proteins, Translation Elongation Factors and Histones” (PLoS Genetics, 2016).
No constants are given. Whether binding was seen depends on the method and setting. Some results given as binding are weak or reduced against the parent protein; the word gives no strength.

Tests used:
[1] = target: FIC-1_(134-508) (C. elegans) (UniProt Q23544); assay: SEC; size exclusion chromatogram of purified protein, elution volumes of standards marked; column and buffer of this run not stated; both purified
[2] = target: FIC-1_(134-508) E274G/I298D (C. elegans) (UniProt Q23544); assay: as above

binding [1] | binding [2] | Binder
binds | – | FIC-1_(134-508) (domain or fragment, C. elegans, UniProt Q23544 134-508, looked up, C. elegans Fic protein FIC-1, residues 134-508; transmembrane helix and membrane proximal domain excluded; also called FIC-1 wild type; FIC-1 wildtype (wt); source: E. coli LOBSTR-RIL(DE3), purified (Ni-Sepharose, size-exclusion chromatography); not shown: His6, N-terminal, kept) DEKRENDPAKVKEAILAAKAAGRSRKDGNLERAMTIMEHAMALAPTNPQILIEMGQIREMHNELVEADQCYVKALAYDPGNSEALVLRARTTPLVSAIDRKMLRSVHDLRDEFNHLQHSTALRRMMRETYFLYVYHTVAIEGNTLSLGQTRAILESGMVIPGKSIREHNEVIGMDAALRFLNCSLLSKEHDEISIDDILEMHRRVLGNADPVEAGRIRTTQVYVGRFTPVSPEYVMEQLKDIVDWLNDESTLTIDPIERAAIAHYKLVLVHPFTDGNGRTARLLLNLIMMRSGFPPVILPVETRAEYYASLHVANLGDLRPFVRYVAKHSEASIQRYIGAMKTSSDNILNSGDSKLTPEESEVSEKIEAECRAGN
– | no binding | FIC-1_(134-508) E274G/I298D (domain or fragment, C. elegans, UniProt Q23544 134-508, looked up) DEKRENDPAKVKEAILAAKAAGRSRKDGNLERAMTIMEHAMALAPTNPQILIEMGQIREMHNELVEADQCYVKALAYDPGNSEALVLRARTTPLVSAIDRKMLRSVHDLRDEFNHLQHSTALRRMMRETYFLYVYHTVAIGGNTLSLGQTRAILESGMVIPGKSDREHNEVIGMDAALRFLNCSLLSKEHDEISIDDILEMHRRVLGNADPVEAGRIRTTQVYVGRFTPVSPEYVMEQLKDIVDWLNDESTLTIDPIERAAIAHYKLVLVHPFTDGNGRTARLLLNLIMMRSGFPPVILPVETRAEYYASLHVANLGDLRPFVRYVAKHSEASIQRYIGAMKTSSDNILNSGDSKLTPEESEVSEKIEAECRAGN
